Non-standard residues stand in square brackets, D forms with d. *: point of attachment. His(Trt) = N[C@@H](Cc1cn(C(c2ccccc2)(c2ccccc2)c2ccccc2)cn1)C(=O)O; Pbf = Cc1c(C)c(S(=O)(=O)*)c(C)c2c1OC(C)(C)C2; Fmoc = O=C(OCC1c2ccccc2-c2ccccc21)*; Boc = CC(C)(C)OC(=O)*; Aib = CC(C)(N)C(=O)O; OtBu = CC(C)(C)O*; tBu = CC(C)(C)*

Data set [1] in a line: general procedure: hybrid (solid and solution phase) peptide synthesis; CTC resin; DIC/oxyma; EDC·HCl/NMM for Gly-OtBu. The conditions noted are these: whole synthesis, scale of the general procedure CTC resin 50 grams (20 grams in some preparations); for crude purity (method not given): RP-HPLC, confirmed by MALDI or LC-MS.
The nature of data set [2]: general procedure: hybrid (solid and solution phase) peptide synthesis; CTC resin (2-chlorotrityl chloride resin); DIC/oxyma; EDC·HCl/NMM for Gly-OtBu. Conditions: whole synthesis, RP-HPLC, confirmed by MALDI or LC-MS, scale of the general procedure CTC resin 50 grams (20 grams in some preparations).

Take “Fmoc-Thr(tBu)-Phe-Thr(tBu)-Ser(tBu)-Asp(OtBu)-Val-Ser(Oxa)-OH”: in data set [1], the “crude purity (method not given)” value came to 99.42% and the crude yield is 99.42%.

For Semaglutide, the “final HPLC purity” value in data set [2] amounted to 97.2%.

For Boc-[His(Trt)][Aib]E(OtBu)G-OH, in data set [1], the “crude purity (method not given)” value is on record as 97.02% and the crude yield stood at 92.5%. The “crude HPLC purity” value in data set [2] is 96%.

H-LVR(Pbf)GR(Pbf)G-OtBu: in data set [1], the “crude purity (method not given)” value was determined as 96% and the crude yield is recorded as 74%.

“Fmoc-Gln(Trt)-Ala-Ala-Lys(PEG-PEG-γ-Glu-octadecane dioic acid)-Glu(OtBu)-Phe-Ile-Ala-Trp(Boc)-OH”: in data set [1], the “crude purity (method not given)” value worked out at 92.1% and the crude yield is listed as 95.0%.

For Fmoc-S(tBu)Y(tBu)LE(OtBu)G-OH, in data set [1], the “crude purity (method not given)” value worked out at 98.33% and the crude yield is listed as 96.6%.

These data come from patent US20230220036 (published 2023).
